Reference: patent publication US20220289854A1
Results are given in words; binding and its absence hold for the method and conditions named. Binding can be weak; no strength is given.

Experiments:
mouse CX3CR1 (mouse) [1] = assay: flow cytometry titration on Jurkat cells transfected with mCX3CR1
mouse CX3CR1 (mouse) [2] = assay: flow cytometry on CT26 cells, 10 µg/ml
mouse CX3CR1 (mouse) [3] = assay: flow cytometry on Jurkat cells transfected with mCX3CR1 (FIG. 1 legend)
mouse CX3CR1 (mouse) [4] = assay: Western blot of CT26, 4T1, GL261, ID8 lysates (1 µg/ml) and flow cytometry on 4T1 and GL261 cells (10 µg/ml)

Measured: binding

B1: 455.1C11 anti-mouse CX3CR1 monoclonal antibody (antibody, V domains shown)
VH: QVQLVETGGGLVRPGNSLKLSCVTSGFTFSNYRMHWLRQFPGKRLEWIAVIAFKSDKFGANYAESVKGRFAISRDDSKNSVYLEMSRLREEDTATYFCSRDGNGPFDYWGQGTTLTVSS
VL: DIVMSQSPSSLTVSVGEKVTMSCKSSQSLLYSGNQKSYLAWYQQKPGQSPRLLIYWASTRESGVPDRFTGSGSGTDFTLTISGVKAEDLAVYYCQRYYGYPRTFGGGTKLEIK
binds: all assays above
